Test results from the supplement of paper PMC11732987, “Enantioselective OTUD7B fragment discovery through chemoproteomics screening and high-throughput optimisation” (Communications Chemistry, 2025).
Some of the results follow. The data scatter; read single values as rough.

Protein sequences, listed by entry. Tags and fused reporters are not part of them. Lines headed by an entry give the natural chain unless they say otherwise; changes in a name come on top. Residues count along the entry.
UniProt O75037, 238-268: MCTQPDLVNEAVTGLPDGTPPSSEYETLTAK
UniProt Q7Z5Y7: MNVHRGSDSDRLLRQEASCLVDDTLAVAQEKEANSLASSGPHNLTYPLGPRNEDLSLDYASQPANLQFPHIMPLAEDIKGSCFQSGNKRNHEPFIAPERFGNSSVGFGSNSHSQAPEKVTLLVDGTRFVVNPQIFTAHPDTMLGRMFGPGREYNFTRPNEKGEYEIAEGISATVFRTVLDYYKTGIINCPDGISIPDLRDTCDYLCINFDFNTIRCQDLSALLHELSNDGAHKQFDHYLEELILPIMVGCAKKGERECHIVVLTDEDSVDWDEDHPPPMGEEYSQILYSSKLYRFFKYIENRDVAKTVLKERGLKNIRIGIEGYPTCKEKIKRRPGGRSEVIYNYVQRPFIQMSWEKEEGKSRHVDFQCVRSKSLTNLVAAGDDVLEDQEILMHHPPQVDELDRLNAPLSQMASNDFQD
UniProt Q9BW62, 78-108: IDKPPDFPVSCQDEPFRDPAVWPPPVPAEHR
UniProt Q9Y4C1: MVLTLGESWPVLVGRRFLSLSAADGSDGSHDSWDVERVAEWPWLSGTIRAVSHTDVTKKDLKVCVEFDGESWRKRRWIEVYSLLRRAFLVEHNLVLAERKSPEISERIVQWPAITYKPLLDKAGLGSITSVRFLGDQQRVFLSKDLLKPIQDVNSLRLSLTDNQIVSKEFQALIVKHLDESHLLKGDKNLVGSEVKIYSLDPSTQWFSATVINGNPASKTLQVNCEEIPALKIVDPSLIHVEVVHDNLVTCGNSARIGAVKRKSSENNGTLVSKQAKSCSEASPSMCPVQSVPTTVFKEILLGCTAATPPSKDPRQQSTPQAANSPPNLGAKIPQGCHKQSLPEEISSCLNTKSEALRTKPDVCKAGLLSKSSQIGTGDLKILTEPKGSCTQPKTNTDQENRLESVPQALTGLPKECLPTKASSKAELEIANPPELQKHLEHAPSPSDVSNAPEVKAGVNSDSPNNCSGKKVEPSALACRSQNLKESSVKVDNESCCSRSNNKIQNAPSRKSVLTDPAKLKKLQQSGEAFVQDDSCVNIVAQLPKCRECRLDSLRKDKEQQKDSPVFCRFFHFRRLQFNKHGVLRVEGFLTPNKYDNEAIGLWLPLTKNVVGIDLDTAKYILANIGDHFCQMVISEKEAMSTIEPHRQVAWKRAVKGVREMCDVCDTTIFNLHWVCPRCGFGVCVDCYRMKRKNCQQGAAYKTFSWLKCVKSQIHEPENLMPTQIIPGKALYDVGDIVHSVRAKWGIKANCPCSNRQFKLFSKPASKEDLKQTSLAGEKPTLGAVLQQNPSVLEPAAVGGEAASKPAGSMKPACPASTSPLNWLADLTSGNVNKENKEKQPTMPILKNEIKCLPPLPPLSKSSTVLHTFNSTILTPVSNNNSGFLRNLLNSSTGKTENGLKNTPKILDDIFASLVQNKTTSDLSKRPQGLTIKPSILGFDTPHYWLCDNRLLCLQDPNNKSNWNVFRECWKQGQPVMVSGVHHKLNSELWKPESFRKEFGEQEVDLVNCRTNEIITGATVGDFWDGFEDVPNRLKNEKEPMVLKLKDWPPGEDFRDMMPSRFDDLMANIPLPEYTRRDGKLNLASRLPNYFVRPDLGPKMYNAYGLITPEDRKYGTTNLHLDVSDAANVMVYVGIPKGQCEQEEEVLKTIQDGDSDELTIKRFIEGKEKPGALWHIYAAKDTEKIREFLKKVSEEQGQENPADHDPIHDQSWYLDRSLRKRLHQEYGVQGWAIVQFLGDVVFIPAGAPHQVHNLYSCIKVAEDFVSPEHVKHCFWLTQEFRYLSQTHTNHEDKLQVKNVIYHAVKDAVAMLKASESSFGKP
UniProt Q8NHM5: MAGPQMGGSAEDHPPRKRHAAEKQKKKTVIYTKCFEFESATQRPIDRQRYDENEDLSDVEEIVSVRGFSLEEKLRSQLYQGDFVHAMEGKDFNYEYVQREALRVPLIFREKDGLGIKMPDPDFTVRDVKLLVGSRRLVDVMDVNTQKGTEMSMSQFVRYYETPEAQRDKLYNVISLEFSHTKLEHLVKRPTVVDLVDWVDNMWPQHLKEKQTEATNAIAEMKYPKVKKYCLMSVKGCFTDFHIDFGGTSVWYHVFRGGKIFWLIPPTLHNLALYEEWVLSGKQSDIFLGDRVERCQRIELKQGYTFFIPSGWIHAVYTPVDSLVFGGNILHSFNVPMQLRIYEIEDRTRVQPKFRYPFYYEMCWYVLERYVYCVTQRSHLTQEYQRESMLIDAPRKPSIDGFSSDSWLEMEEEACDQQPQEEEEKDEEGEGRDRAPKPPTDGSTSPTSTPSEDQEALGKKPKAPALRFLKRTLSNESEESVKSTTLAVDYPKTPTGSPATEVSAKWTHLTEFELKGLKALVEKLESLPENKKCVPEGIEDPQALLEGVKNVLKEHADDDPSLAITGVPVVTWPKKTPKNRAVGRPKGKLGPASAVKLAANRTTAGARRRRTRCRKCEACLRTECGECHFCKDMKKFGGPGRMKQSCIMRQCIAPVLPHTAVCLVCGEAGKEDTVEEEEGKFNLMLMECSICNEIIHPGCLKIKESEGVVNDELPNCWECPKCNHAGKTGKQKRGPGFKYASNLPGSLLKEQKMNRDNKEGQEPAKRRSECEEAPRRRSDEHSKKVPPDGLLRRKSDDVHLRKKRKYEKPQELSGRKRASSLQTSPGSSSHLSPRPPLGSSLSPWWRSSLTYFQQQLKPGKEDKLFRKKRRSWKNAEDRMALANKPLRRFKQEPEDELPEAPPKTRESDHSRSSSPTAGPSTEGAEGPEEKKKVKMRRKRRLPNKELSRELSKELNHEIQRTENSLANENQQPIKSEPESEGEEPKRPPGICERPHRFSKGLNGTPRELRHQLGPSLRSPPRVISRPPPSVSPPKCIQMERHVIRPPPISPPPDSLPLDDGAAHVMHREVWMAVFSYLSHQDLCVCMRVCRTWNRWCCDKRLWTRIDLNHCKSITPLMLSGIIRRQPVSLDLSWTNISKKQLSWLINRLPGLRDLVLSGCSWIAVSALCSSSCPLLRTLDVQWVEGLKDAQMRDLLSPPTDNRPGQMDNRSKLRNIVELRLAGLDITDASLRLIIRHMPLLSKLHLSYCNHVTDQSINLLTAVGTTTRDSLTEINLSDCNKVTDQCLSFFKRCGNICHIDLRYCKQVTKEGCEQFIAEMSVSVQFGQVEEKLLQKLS
UniProt Q9Y597: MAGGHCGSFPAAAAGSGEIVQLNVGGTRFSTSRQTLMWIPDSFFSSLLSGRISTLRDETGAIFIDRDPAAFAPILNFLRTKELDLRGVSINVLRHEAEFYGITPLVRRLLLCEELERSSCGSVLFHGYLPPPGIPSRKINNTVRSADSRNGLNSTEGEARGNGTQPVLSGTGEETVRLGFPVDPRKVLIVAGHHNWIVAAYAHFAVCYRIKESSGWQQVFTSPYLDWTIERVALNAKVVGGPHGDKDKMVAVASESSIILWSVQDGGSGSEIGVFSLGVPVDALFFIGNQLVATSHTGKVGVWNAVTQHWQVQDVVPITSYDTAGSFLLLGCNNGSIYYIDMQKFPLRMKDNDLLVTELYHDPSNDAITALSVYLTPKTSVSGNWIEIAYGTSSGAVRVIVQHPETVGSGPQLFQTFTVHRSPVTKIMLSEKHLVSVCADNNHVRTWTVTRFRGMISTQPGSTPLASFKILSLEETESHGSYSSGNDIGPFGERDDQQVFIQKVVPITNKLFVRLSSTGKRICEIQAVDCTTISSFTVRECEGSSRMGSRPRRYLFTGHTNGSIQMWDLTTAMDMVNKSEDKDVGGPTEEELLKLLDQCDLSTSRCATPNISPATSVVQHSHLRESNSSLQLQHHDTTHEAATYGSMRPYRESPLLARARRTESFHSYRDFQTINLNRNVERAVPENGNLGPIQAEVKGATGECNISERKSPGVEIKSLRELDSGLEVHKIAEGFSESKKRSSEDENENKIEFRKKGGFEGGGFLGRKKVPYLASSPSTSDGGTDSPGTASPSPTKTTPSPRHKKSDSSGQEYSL
UniProt O60333: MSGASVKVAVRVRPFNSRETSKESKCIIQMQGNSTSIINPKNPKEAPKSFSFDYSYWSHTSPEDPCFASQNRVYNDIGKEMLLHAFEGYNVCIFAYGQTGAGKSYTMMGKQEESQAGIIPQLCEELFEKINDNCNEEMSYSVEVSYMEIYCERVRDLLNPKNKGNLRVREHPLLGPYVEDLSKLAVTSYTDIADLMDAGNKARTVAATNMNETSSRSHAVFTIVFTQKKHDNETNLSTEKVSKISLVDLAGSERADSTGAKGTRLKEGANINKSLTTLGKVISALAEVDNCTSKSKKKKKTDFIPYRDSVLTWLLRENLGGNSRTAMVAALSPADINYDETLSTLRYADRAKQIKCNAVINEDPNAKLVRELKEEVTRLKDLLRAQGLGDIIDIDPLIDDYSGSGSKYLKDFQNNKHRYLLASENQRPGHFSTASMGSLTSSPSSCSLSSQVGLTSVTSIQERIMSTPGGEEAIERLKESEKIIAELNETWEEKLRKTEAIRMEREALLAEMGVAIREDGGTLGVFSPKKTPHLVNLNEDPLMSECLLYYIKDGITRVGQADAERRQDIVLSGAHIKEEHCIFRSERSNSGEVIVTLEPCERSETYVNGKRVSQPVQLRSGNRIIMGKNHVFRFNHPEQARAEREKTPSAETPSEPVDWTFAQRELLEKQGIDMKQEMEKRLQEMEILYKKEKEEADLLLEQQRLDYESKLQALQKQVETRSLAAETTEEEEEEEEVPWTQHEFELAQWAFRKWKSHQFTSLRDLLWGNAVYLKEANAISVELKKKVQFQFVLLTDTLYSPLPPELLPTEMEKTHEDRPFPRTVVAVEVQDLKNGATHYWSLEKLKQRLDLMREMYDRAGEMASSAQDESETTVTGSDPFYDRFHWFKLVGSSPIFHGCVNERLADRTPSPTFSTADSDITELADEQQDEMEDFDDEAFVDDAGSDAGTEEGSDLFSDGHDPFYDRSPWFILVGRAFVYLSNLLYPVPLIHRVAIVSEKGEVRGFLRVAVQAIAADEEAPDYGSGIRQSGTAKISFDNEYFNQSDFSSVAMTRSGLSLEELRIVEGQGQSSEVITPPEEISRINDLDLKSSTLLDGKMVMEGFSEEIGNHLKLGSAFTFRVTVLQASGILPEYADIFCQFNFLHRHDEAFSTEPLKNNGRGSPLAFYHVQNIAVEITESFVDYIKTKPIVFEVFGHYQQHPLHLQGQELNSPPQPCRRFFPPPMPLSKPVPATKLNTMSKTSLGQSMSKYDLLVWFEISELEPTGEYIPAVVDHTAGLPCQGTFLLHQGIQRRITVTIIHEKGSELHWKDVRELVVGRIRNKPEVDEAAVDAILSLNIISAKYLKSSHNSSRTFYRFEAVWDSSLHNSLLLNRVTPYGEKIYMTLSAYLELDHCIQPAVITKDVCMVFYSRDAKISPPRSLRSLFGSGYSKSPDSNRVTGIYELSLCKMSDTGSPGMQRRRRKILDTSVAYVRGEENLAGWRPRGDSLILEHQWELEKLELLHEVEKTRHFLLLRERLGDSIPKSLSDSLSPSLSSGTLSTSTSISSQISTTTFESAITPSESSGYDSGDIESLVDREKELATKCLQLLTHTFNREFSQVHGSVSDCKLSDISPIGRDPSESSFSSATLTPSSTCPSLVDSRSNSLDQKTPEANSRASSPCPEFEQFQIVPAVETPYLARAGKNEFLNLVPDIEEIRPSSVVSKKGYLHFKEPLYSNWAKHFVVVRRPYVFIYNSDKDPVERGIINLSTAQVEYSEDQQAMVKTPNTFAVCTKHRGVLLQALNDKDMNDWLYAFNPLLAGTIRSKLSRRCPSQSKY
UniProt O00139: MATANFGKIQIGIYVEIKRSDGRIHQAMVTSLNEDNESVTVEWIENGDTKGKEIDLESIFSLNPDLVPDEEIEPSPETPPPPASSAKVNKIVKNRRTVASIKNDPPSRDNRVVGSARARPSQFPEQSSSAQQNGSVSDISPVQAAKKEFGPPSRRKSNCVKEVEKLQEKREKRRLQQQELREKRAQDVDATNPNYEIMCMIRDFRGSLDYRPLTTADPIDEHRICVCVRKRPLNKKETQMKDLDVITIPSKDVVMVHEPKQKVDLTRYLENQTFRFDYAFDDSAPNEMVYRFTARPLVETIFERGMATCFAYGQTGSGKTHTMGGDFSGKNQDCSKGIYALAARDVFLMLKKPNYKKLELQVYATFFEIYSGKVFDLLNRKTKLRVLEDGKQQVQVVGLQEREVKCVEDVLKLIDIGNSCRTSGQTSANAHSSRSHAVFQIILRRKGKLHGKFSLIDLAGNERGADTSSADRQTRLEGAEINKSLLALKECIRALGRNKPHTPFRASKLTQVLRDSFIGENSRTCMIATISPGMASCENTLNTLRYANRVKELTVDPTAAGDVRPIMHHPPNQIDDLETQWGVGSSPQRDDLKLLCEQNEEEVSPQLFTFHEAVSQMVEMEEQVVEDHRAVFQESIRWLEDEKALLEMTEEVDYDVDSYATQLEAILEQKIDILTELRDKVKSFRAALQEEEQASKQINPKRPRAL
UniProt Q99661, 587-622: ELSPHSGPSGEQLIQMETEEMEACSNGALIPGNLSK

How the values were obtained:
[1] = compound: ClCC(=O)N[C@@H]1CCCc2ccccc12; assay: log2 mean competition ratio of IA-DTB cysteine labelling (DMSO/compound) (log2 ratio); higher = stronger cysteine engagement by compound; details: treatment time: 4 h, cell line lysate: HEK293T
Experimental: (§1)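 IA-DTB competitive cysteine chemoproteomics in HEK293T RIPA lysate. Lysates were treated with compound 29 or 30 at 50 or 200 µM for 4 h, then IA-DTB (500 µM, 1 h), trypsin-digested, NeutrAvidin-enriched and analysed by diaPASEF. Competition ratio = intensity DMSO / intensity compound (n=4 treated, n=64 DMSO); binding: mean log2 CR ≥ 1 and p ≤ 0.05 plus QC filters. Target is the cysteine site.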

[2] = compound: ClCC(=O)N[C@H]1CCCc2ccccc12; assay: as above; details: treatment time: 4 h, cell line lysate: HEK293T
Experimental: as §1

Row | Target | log2 mean competition ratio ([1]; 50 µM) | log2 mean competition ratio ([1]; 200 µM) | log2 mean competition ratio ([2]; 50 µM) | log2 mean competition ratio ([2]; 200 µM)
1 | KIF26A C1776 (UniProt Q9ULI4) | -0.217 | -0.0221 | -0.25 | –
2 | JPH1 C626 (UniProt Q9HDC5) | -0.109 | 0.011 | -0.198 | 0.00998
3 | JRK C166 (UniProt O75564) | -0.311 | 0.909 | – | 0.101
4 | KIF18A C749 | -0.104 | 0.278 | – | –
5 | JAK1 C257 (UniProt P23458) | -0.0286 | 0.053 | – | –
6 | KHSRP C176 | -0.127 | 0.0559 | – | –
7 | KIF21B C239 (UniProt O75037) | -0.12 | 0.182 | – | -0.712
8 | KCTD20 C369 (UniProt Q7Z5Y7) | 0.00694 | 0.293 | – | –
9 | KATNAL1 C88 (UniProt Q9BW62) | -0.104 | 0.365 | -0.102 | 0.0659
10 | KIF20B C96 (UniProt Q96Q89) | -0.243 | 0.0777 | – | 0.41
11 | KIF23 C165 (UniProt Q02241) | -0.186 | -0.0448 | – | –
12 | KHDC4 C280 (UniProt Q7Z7F0) | -0.167 | 0.0647 | -0.0796 | 0.182
13 | ITPR3 C254 (UniProt Q14573) | 0.27 | -0.0535 | 0.256 | -0.132
14 | KDM6B C1138 | -0.292 | 0.227 | – | –
15 | KDM3A C1009 (UniProt Q9Y4C1) | -0.298 | -0.00152 | – | –
16 | KDM5A C1409 (UniProt P29375) | 0.107 | 0.413 | – | –
17 | KIF16B C242 (UniProt Q96L93) | -0.394 | -0.543 | – | –
18 | KIF26A C915 (UniProt Q9ULI4) | 0.0744 | 0.312 | – | –
19 | KDM2B C770 (UniProt Q8NHM5) | -0.171 | 0.153 | – | –
20 | KCTD3 C704 (UniProt Q9Y597) | -0.129 | 0.033 | – | –

Row | Target | log2 mean competition ratio ([1]; 50 µM) | log2 mean competition ratio ([1]; 200 µM) | log2 mean competition ratio ([2]; 50 µM) | log2 mean competition ratio ([2]; 200 µM)
21 | ITPRID2 C305 (UniProt P28290) | -0.0933 | -0.108 | – | –
22 | KBTBD8 C413 (UniProt Q8NFY9) | 0.0415 | -0.139 | 0.0265 | -0.376
23 | KIF1B C600 (UniProt O60333) | -0.271 | -0.157 | – | –
24 | IVNS1ABP C143 (UniProt Q9Y6Y0) | -0.1 | -0.129 | – | –
25 | IVNS1ABP C32 (UniProt Q9Y6Y0) | -0.0167 | -0.0254 | 0.185 | 0.0985
26 | IRF2BPL C63 (UniProt Q9H1B7) | -0.0505 | -0.0469 | 0.0573 | -0.00955
27 | ITPRID2 C673 (UniProt P28290) | 0.0114 | -0.421 | – | –
28 | KARS1 C496 (UniProt Q15046) | -0.425 | -0.421 | – | –
29 | KAT6A C393 | 0.213 | 0.164 | – | –
30 | KIAA1958 C73 | -0.119 | 0.393 | – | –
31 | KDM5C C327 (UniProt P41229) | -0.321 | -0.246 | -0.0733 | 0.0933
32 | KDM1A C600 (UniProt O60341) | -0.0526 | -0.401 | – | –
33 | KIF2A C420 (UniProt O00139) | -0.0766 | 0.216 | 0.0227 | 0.269
34 | ITPKB C267 (UniProt P27987) | 0.144 | 0.234 | – | –
35 | KIAA0100 C1055 (UniProt Q14667) | -0.19 | 0.262 | – | –
36 | KIF13A C958 (UniProt Q9H1H9) | 0.432 | 0.0824 | – | –
37 | KIF13B C26 (UniProt Q9NQT8) | -0.0518 | -0.115 | – | –
38 | KIF1C C711 (UniProt O43896) | 0.0786 | 0.0175 | 0.0556 | 0.0852
39 | KDM3A C467 (UniProt Q9Y4C1) | -0.16 | 0.205 | -0.0992 | -0.061
40 | KIAA1586 C758 (UniProt Q9HCI6) | 0.128 | -0.0627 | 0.303 | 0.0753

Row | Target | log2 mean competition ratio ([1]; 50 µM) | log2 mean competition ratio ([1]; 200 µM) | log2 mean competition ratio ([2]; 50 µM) | log2 mean competition ratio ([2]; 200 µM)
41 | KIF20A C43 (UniProt O95235) | -0.392 | -0.351 | -0.263 | -0.345
42 | KBTBD2 C524 (UniProt Q8IY47) | -0.214 | -0.14 | 0.106 | -0.288
43 | ITPR1 C653 (UniProt Q14643) | -0.0625 | -0.132 | -0.0739 | 0.0345
44 | KDM6A C797 (UniProt O15550) | 0.00828 | -0.174 | 0.0962 | -0.0372
45 | KHNYN C245 (UniProt O15037) | -0.146 | 0.09 | 0.00478 | 0.248
46 | JCAD C785 | 0.312 | 0.0688 | -0.0329 | -0.0787
47 | KDM6A C1023 (UniProt O15550) | -0.0188 | 0.0707 | -0.333 | -0.195
48 | KIAA1671 C817 | 0.0147 | -0.0584 | -0.133 | 0.374
49 | ITCH C871 (UniProt Q96J02) | 0.443 | -0.111 | 0.507 | -0.0564
50 | KIF15 C576 (UniProt Q9NS87) | 0.0798 | 0.669 | 0.229 | 0.356
51 | KDM1B C331 (UniProt Q8NB78) | 0.176 | -0.174 | 0.237 | -0.235
52 | JCAD C722 | -0.0228 | -0.325 | -0.212 | -0.161
53 | KDM5B C225 (UniProt Q9UGL1) | -0.133 | -0.235 | -0.303 | 0.182
54 | KIF2C C610 (UniProt Q99661) | -0.0458 | -0.322 | 0.037 | -0.7
55 | IRS4 C1065 | -0.0198 | -0.224 | -0.123 | 0.157
56 | KIF4A C965 (UniProt O95239) | -0.378 | -0.254 | 0.413 | -0.0172
57 | KDM1A C360 (UniProt O60341) | 0.36 | -0.105 | -0.166 | -0.309
58 | KIF11 C911 (UniProt P52732) | 0.114 | -0.23 | -0.176 | -0.264
59 | KCTD3 C541 (UniProt Q9Y597) | 0.0137 | 0.355 | 0.16 | 0.455

Exported comma-delimited: entries from further up.
Row,Target,log2 mean competition ratio ([1]; 50 µM),log2 mean competition ratio ([1]; 200 µM),log2 mean competition ratio ([2]; 50 µM),log2 mean competition ratio ([2]; 200 µM)
55,IRS4 C1065,-0.0198,-0.224,-0.123,0.157
56,KIF4A C965 (UniProt O95239),-0.378,-0.254,0.413,-0.0172
57,KDM1A C360 (UniProt O60341),0.36,-0.105,-0.166,-0.309
58,KIF11 C911 (UniProt P52732),0.114,-0.23,-0.176,-0.264
59,KCTD3 C541 (UniProt Q9Y597),0.0137,0.355,0.16,0.455
